Our source for the TEAD-luciferase reporter activity values is the supplement of paper PMC10735217.

In the assay the test system is HEK293A TEAD-LUC reporter. Kind of assay: TEAD-luciferase reporter activity (YAP activation), robust Z score vs plate; higher = stronger YAP/TEAD activation. As to conditions: 24 h. (In a reporter assay the amount or activity of a reporter protein is the signal.)

Structures can show the parent of a compound that is named as a salt. The list shows a part of the results. Single values are uncertain here, since repeats match poorly.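 Human kidney-derived cells stably carry a construct in which eight TEAD-binding elements drive luciferase, measured by luminescence in a drug-repurposing library screen. A hit is any compound whose signal exceeds the plate mean by more than five robust Z scores.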

Regarding `CN(C)CCCN1c2ccccc2CCc2ccc(C#N)cc21`, the TEAD-luciferase reporter activity reads like this: (compound concentration: 200 nM) inactive: -1.08; (compound concentration: 2 uM) inactive: -0.961; (compound concentration: 10 uM) inactive: 3.35.

As to `COC(=O)C1=C(C)N(C)C(C)=C(C(=O)OC)C1c1ccc(C(F)(F)F)cc1`, the TEAD-luciferase reporter activity runs as follows: (compound concentration: 200 nM) inactive: -3.16; (compound concentration: 2 uM) inactive: -1.15; (compound concentration: 10 uM) inactive: 2.89.

In the case of `CCCCCCCC/C=C\CCCCCCCC(=O)NCc1ccc(OCCN)c(OC)c1`, the TEAD-luciferase reporter activity by setting is: (compound concentration: 200 nM) inactive: -0.832; (compound concentration: 2 uM) inactive: -0.667; (compound concentration: 10 uM) inactive: 3.58.

Take `CCn1c(C(=O)N(C2CC2)C2CC2)cc2c3c(ncn3C)c(Nc3cc(C)n(C)n3)nc21`: the TEAD-luciferase reporter activity (compound concentration: 200 nM) was inactive: 0.105, the TEAD-luciferase reporter activity (compound concentration: 2 uM) is inactive: -1.78 and the TEAD-luciferase reporter activity (compound concentration: 10 uM) is inactive: -0.716.

On to `O=C(NC1CCCN(CCc2ccccc2)C1)c1cc2ccccc2o1` (configuration not stated), for which the TEAD-luciferase reporter activity was inactive: 0.175 (compound concentration: 200 nM), inactive: -1.37 (compound concentration: 2 uM) and inactive: 1.69 (compound concentration: 10 uM).

As for `CC1=CC[C@@](O)(C(C)C)CC1` [4-Carvomenthenol], the TEAD-luciferase reporter activity (compound concentration: 200 nM) is inactive: -2.64, the TEAD-luciferase reporter activity (compound concentration: 2 uM) is inactive: -0.752 and the TEAD-luciferase reporter activity (compound concentration: 10 uM) is inactive: -1.26.

On to `CCCCCCCCCCCCCCSCC(=O)O` [Tetradecylthioacetic acid], for which the TEAD-luciferase reporter activity is inactive: 2.37 (compound concentration: 200 nM), inactive: -0.768 (compound concentration: 2 uM) and inactive: -1.84 (compound concentration: 10 uM).

Take `COc1ccc(C(=O)N2CCN(c3ccc4c(c3)CCC(=O)N4)CC2)cc1OC`: the TEAD-luciferase reporter activity (compound concentration: 200 nM) is inactive: -0.654, the TEAD-luciferase reporter activity (compound concentration: 2 uM) was inactive: -0.301 and the TEAD-luciferase reporter activity (compound concentration: 10 uM) is inactive: 0.0978.

For `CCOC(=O)C[C@H](NC(=O)CN1C(=O)N[C@@](C)(c2ccc(C(=N)N)cc2)C1=O)c1ccccc1`, the TEAD-luciferase reporter activity (compound concentration: 200 nM) was inactive: 1.36, the TEAD-luciferase reporter activity (compound concentration: 2 uM) was inactive: -0.298 and the TEAD-luciferase reporter activity (compound concentration: 10 uM) was inactive: -1.11.

Take `COc1ccc(S(=O)(=O)NCc2cc(CN3CCCC3)c(O)c(CN3CCCC3)c2)cc1` [Sulcardine sulfate]: the TEAD-luciferase reporter activity is, setting by setting: (compound concentration: 200 nM) inactive: -0.395; (compound concentration: 2 uM) inactive: -1.19; (compound concentration: 10 uM) inactive: 0.188.

On to `CCOC(=O)[C@H](CCc1ccccc1)N[C@@H](C)C(=O)N1CCC[C@H]1C(=O)OCCCO[N+](=O)[O-]`, for which the TEAD-luciferase reporter activity is inactive: 0.201 (compound concentration: 200 nM), inactive: 0.668 (compound concentration: 2 uM) and inactive: 3.36 (compound concentration: 10 uM).

As to `COc1cc2ncnc(Nc3ccc(F)c(Cl)c3)c2cc1OCCN1CC2(CC2)C2(C1)OCCO2`, the TEAD-luciferase reporter activity by setting is: (compound concentration: 200 nM) inactive: -2.07; (compound concentration: 2 uM) inactive: -1.69; (compound concentration: 10 uM) inactive: 0.386.

`Cc1ccccc1NC(=O)Nc1ccc(CC(=O)N[C@@H](CC(C)C)C(=O)N[C@@H](CC(=O)O)C(=O)N[C@H](C(=O)N2CCC[C@H]2C(=O)O)C(C)C)cc1`: the TEAD-luciferase reporter activity (compound concentration: 200 nM) was inactive: -0.893, the TEAD-luciferase reporter activity (compound concentration: 2 uM) was inactive: -0.209 and the TEAD-luciferase reporter activity (compound concentration: 10 uM) was active: 5.01.

For the molecule `CCS(=O)(=O)c1ccc(OC)c(Nc2nccc(N(C)c3ccc4c(C)n[nH]c4c3)n2)c1`, the TEAD-luciferase reporter activity (compound concentration: 200 nM) is inactive: -0.121, the TEAD-luciferase reporter activity (compound concentration: 2 uM) is inactive: -1.83 and the TEAD-luciferase reporter activity (compound concentration: 10 uM) is inactive: -1.76.

Regarding `CC(C)(C)c1cc(C2CCCCC2)ccc1OC(=O)c1ccncc1`, the TEAD-luciferase reporter activity by setting is: (compound concentration: 200 nM) inactive: -1.15; (compound concentration: 2 uM) inactive: -0.124; (compound concentration: 10 uM) inactive: -1.33.

Turning to `CCNC(=O)NCCCOc1cccc(CN2CCCCC2)c1` [Dalcotidine], the TEAD-luciferase reporter activity is, setting by setting: (compound concentration: 200 nM) inactive: -1.29; (compound concentration: 2 uM) inactive: -1.98; (compound concentration: 10 uM) inactive: 0.103.

`COc1ccc2[nH]c(SCCN3CCOCC3)nc2c1`: the TEAD-luciferase reporter activity runs as follows: (compound concentration: 200 nM) inactive: 0.657; (compound concentration: 2 uM) inactive: 1.09; (compound concentration: 10 uM) inactive: -0.536.

On to `CCCCc1nc(CCCC)c(Cc2ccc(-c3ccccc3-c3nn[nH]n3)cc2)c(=O)[nH]1`, for which the TEAD-luciferase reporter activity reads like this: (compound concentration: 200 nM) inactive: 0.905; (compound concentration: 2 uM) inactive: 1.28; (compound concentration: 10 uM) inactive: 0.622.

Consider `CC(C)COc1ccccc1N(CCCCN(C)CCc1cccnc1)C(=O)c1cccc(C(F)(F)F)c1`, for which the TEAD-luciferase reporter activity is inactive: 1.62 (compound concentration: 200 nM), inactive: -1.16 (compound concentration: 2 uM) and inactive: 0.272 (compound concentration: 10 uM).

On to `COc1ccccc1OC(=O)c1ccccc1OC(C)=O` [guacetisal], for which the TEAD-luciferase reporter activity runs as follows: (compound concentration: 200 nM) inactive: -1.12; (compound concentration: 2 uM) inactive: 1.06; (compound concentration: 10 uM) inactive: 0.388.

`COc1cc(C(=O)NS(=O)(=O)c2ccccc2C)ccc1Cc1cn(C)c2ccc(C(=O)NCC(C)CC(F)(F)F)cc12` (configuration not stated): the TEAD-luciferase reporter activity by setting is: (compound concentration: 200 nM) inactive: 1; (compound concentration: 2 uM) inactive: 0.033; (compound concentration: 10 uM) inactive: -1.7.

Take `CC(=O)Oc1ccc(Br)cc1C(=O)O`: the TEAD-luciferase reporter activity was inactive: -1.4 (compound concentration: 200 nM), inactive: -1.95 (compound concentration: 2 uM) and inactive: -1.41 (compound concentration: 10 uM).

In the case of `Cn1c(=O)c2c(ncn2CC(=O)N2CC3(CCN(CCc4ccccc4)CC3)OC2=O)n(C)c1=O` [spirophylline], the TEAD-luciferase reporter activity reads like this: (compound concentration: 200 nM) inactive: 0.49; (compound concentration: 2 uM) inactive: 3.09; (compound concentration: 10 uM) inactive: 1.48.

Take `CCc1cccc(C)c1CNc1cc(C(N)=O)cn2c(C)c(C)nc12`: the TEAD-luciferase reporter activity (compound concentration: 200 nM) was inactive: 0.738, the TEAD-luciferase reporter activity (compound concentration: 2 uM) was inactive: -1.07 and the TEAD-luciferase reporter activity (compound concentration: 10 uM) was inactive: -1.79.
